Data: publication PMC3818382

Protein sequences, listed by entry. Tags and fused reporters are not part of them. Lines headed by an entry give the natural chain unless they say otherwise; changes in a name come on top.
UniProt P16220: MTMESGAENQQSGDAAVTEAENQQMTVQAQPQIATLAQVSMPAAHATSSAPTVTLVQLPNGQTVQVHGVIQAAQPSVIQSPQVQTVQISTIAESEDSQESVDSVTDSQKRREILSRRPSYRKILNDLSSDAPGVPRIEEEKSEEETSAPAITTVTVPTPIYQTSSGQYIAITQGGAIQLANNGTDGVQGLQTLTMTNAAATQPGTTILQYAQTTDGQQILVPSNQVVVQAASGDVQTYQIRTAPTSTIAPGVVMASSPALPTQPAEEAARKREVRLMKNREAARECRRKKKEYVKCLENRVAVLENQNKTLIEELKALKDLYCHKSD

Assays:
ATF-2 (CRE-BP1) [1] = target: T1, ATF-2 (CRE-BP1) (UniProt P15336); assay: EMSA, competition; settings: nuclear extract, labelled G probe clearly weaker, 50-fold unlabelled G competes less than A; 100 fmol biotinylated dsDNA probe, 5 ug nuclear extract, 1 ug poly d(I)-d(C), 30 min; 50-fold competitor; 6% polyacrylamide gel; protein in an extract; label: biotin (labelled probe), unlabelled as competitor
T1 sequence (looked up, limits assumed): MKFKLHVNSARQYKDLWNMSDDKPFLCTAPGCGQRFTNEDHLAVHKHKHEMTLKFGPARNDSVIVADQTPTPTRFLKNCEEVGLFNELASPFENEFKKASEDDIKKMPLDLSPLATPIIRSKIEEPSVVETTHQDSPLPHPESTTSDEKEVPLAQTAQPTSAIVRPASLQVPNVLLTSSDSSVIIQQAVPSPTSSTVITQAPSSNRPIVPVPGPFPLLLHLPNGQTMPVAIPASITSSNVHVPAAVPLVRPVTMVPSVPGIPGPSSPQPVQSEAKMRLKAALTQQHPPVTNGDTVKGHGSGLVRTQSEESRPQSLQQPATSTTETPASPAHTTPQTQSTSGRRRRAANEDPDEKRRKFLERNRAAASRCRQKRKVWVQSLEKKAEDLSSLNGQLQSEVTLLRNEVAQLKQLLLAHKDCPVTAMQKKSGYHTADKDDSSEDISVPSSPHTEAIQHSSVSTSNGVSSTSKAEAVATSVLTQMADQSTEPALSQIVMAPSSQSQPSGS

CREB1 [2] = target: CREB1 (UniProt P16220); assay: EMSA, competition; settings: nuclear extract, labelled G probe clearly weaker, 50-fold unlabelled G competes less than A; 100 fmol biotinylated dsDNA probe, 5 ug nuclear extract, 1 ug poly d(I)-d(C), 30 min; 50-fold competitor; 6% polyacrylamide gel; protein in an extract; label: biotin (labelled probe), unlabelled as competitor
ATF-2 (CRE-BP1) [3] = target: T1, ATF-2 (CRE-BP1); assay: competition with a labelled probe; settings: DLD-1 nuclear extract, 100 fmol biotinylated dsDNA probe, 5 ug nuclear extract, 1 ug poly d(I)-d(C), 30 min, 50-fold competitor, 6% polyacrylamide gel, protein in an extract, label: none (unlabelled competitor)
CREB1 [4] = target: CREB1 (UniProt P16220); assay: competition with a labelled probe; settings: 50-fold excess did not inhibit complex on DMBT1 A probe, DLD-1 nuclear extract; 100 fmol biotinylated dsDNA probe, 5 ug nuclear extract, 1 ug poly d(I)-d(C), 30 min; 50-fold competitor; 6% polyacrylamide gel; protein in an extract; label: none (unlabelled competitor)
CREB1 [5] = target: CREB1 (UniProt P16220); assay: EMSA with CREB1 antibody (inhibits complex); settings: nuclear extract, also competed by unlabelled CREB1 and DMBT1 probes; 100 fmol biotinylated dsDNA probe, 5 ug nuclear extract, 1 ug poly d(I)-d(C), 30 min; 50-fold competitor; 6% polyacrylamide gel; protein in an extract; label: biotin (labelled probe), unlabelled as competitor
ATF-2 (CRE-BP1) [6] = target: T1, ATF-2 (CRE-BP1); assay: EMSA with ATF-2 antibody (signal diminished) and ATF-2 siRNA; settings: DLD-1 nuclear extract, siRNA slightly decreased the complex; 100 fmol biotinylated dsDNA probe, 5 ug nuclear extract, 1 ug poly d(I)-d(C), 30 min; 50-fold competitor; 6% polyacrylamide gel; protein in an extract; label: biotin (labelled probe), unlabelled as competitor
CREB1 [7] = target: CREB1 (UniProt P16220); assay: EMSA with CREB1 antibody (signal diminished) and CREB1 siRNA; settings: DLD-1 nuclear extract, siRNA nearly abolished the complex; 100 fmol biotinylated dsDNA probe, 5 ug nuclear extract, 1 ug poly d(I)-d(C), 30 min; 50-fold competitor; 6% polyacrylamide gel; protein in an extract; label: biotin (labelled probe), unlabelled as competitor

CCTGCTAACGTAGCCAAATTGCTA (double strand) [DMBT1 probe rs2981804 G (protective allele)]
binding result (ATF-2 (CRE-BP1) [1]): binds more weakly | binding result (CREB1 [2]): binds more weakly

GATCCTTCTGGGCCGTCCTAGATC (double strand) [unspecific competitor probe]
binding result (ATF-2 (CRE-BP1) [3]; 50-fold excess did not inhibit complex on DMBT1 A probe): no binding | binding result (CREB1 [4]): no binding

AGAGATTGCCTGACGTCAGAGAGCTAG (double strand) [CREB1 consensus probe]
binding result (CREB1 [5]): binds

CTTAGTTACGTAATAATTGT (double strand) [ATF-2 probe]
binding result (ATF-2 (CRE-BP1) [3]; 50-fold excess reduced complex on DMBT1 A probe): binds

CCTGCTAACGTAACCAAATTGCTA (double strand) [DMBT1 probe rs2981804 A (risk allele)]
binding result (ATF-2 (CRE-BP1) [6]): binds | binding result (CREB1 [7]): binds

The exact form of at least one protein or probe is not confirmed. Results from cells or extracts need not show a direct contact. For some assays here: Negatives hold for the conditions tested. For some assays here: At least one verdict was read from the data and is not stated in words by the source. For some assays here: Where a protein sequence is shown, tags need not be part of it. For some assays here: The comparison behind a weaker result is the experiment's own reference, which may not be listed here.
